According to patent US10577317B2, “Crystal forms and production methods thereof” (Sunovion Pharmaceuticals Inc., priority 2017, dated 2020):
Further values from the same series stand in other lists.

Experiment: DVS water sorption isotherm, 25° C. scanned over 0 to 95% relative humidity (hygroscopicity)
Format: physicochemical
Conditions: FIG. 2E
Description: In various embodiments, the hygroscopicity of crystal forms of racemic amisulpride, enantiomeric amisulpride, and enantiomeric amisulpride solvates are characterized by dynamic vapor sorption (DVS). DVS is a gravimetric technique that measures how much of a solvent is absorbed by a sample by varying the vapor concentration surrounding the sample (e.g., relative humidity) and measuring the change in mass. In the present application, DVS is used to generate water sorption isotherms, which represent the equilibrium amount of vapor sorbed as a function of steady state relative vapor pressure at a constant temperature.

- Change Mass (RH 1.32 %, elapse time 170.4 min): 0.000 wt %
- Change Mass (RH 4.91 %, elapse time 352.8 min): −0.005 wt %
- Change Mass (RH 5.05 %, elapse time 1033.3 min): 0.006 wt %
- Change Mass (RH 5.10 %, elapse time 694.6 min): −0.004 wt %
- Change Mass (RH 9.91 %, elapse time 702.6 min): −0.001 wt %
- Change Mass (RH 10.10 %, elapse time 363.3 min): −0.001 wt %
- Change Mass (RH 10.10 %, elapse time 1025.3 min): 0.011 wt %
- Change Mass (RH 10.17 %, elapse time 686.6 min): 0.002 wt %
- Change Mass (RH 14.90 %, elapse time 710.6 min): 0.005 wt %
- Change Mass (RH 15.11 %, elapse time 678.6 min): 0.007 wt %
- Change Mass (RH 15.12 %, elapse time 1017.3 min): 0.016 wt %
- Change Mass (RH 15.14 %, elapse time 375.8 min): 0.006 wt %
- Change Mass (RH 19.91 %, elapse time 718.6 min): 0.012 wt %
- Change Mass (RH 20.09 %, elapse time 1009.3 min): 0.021 wt %
- Change Mass (RH 20.10 %, elapse time 670.6 min): 0.014 wt %
- Change Mass (RH 24.87 %, elapse time 727.6 min): 0.017 wt %
- Change Mass (RH 24.91 %, elapse time 662.6 min): 0.020 wt %
- Change Mass (RH 24.91 %, elapse time 1001.3 min): 0.027 wt %
- Change Mass (RH 29.85 %, elapse time 736.6 min): 0.024 wt %
- Change Mass (RH 30.14 %, elapse time 655.0 min): 0.026 wt %
- Change Mass (RH 30.14 %, elapse time 993.8 min): 0.032 wt %
- Change Mass (RH 34.86 %, elapse time 745.6 min): 0.029 wt %
- Change Mass (RH 34.91 %, elapse time 646.5 min): 0.033 wt %
- Change Mass (RH 34.96 %, elapse time 985.3 min): 0.038 wt %
- Change Mass (RH 39.84 %, elapse time 975.3 min): 0.043 wt %
- Change Mass (RH 39.88 %, elapse time 636.5 min): 0.038 wt %
- Change Mass (RH 39.96 %, elapse time 756.6 min): 0.036 wt %
- Change Mass (RH 44.93 %, elapse time 767.6 min): 0.043 wt %
- Change Mass (RH 45.04 %, elapse time 965.8 min): 0.049 wt %
- Change Mass (RH 49.83 %, elapse time 776.6 min): 0.049 wt %
- Change Mass (RH 50.05 %, elapse time 954.7 min): 0.055 wt %
- Change Mass (RH 54.99 %, elapse time 787.6 min): 0.057 wt %
- Change Mass (RH 55.04 %, elapse time 945.7 min): 0.062 wt %
- Change Mass (RH 59.98 %, elapse time 798.7 min): 0.064 wt %
- Change Mass (RH 60.15 %, elapse time 934.7 min): 0.069 wt %
- Change Mass (RH 64.95 %, elapse time 807.7 min): 0.072 wt %
- Change Mass (RH 65.08 %, elapse time 923.7 min): 0.078 wt %
- Change Mass (RH 69.88 %, elapse time 818.7 min): 0.079 wt %
- Change Mass (RH 70.14 %, elapse time 912.7 min): 0.087 wt %
- Change Mass (RH 74.62 %, elapse time 827.7 min): 0.086 wt %
- Change Mass (RH 75.08 %, elapse time 901.7 min): 0.098 wt %
- Change Mass (RH 79.72 %, elapse time 836.7 min): 0.097 wt %
- Change Mass (RH 80.48 %, elapse time 892.7 min): 0.109 wt %
- Change Mass (RH 84.65 %, elapse time 845.7 min): 0.113 wt %
- Change Mass (RH 85.33 %, elapse time 883.7 min): 0.131 wt %
- Change Mass (RH 89.55 %, elapse time 854.7 min): 0.131 wt %
- Change Mass (RH 90.11 %, elapse time 874.7 min): 0.143 wt %
- Change Mass (RH 94.65 %, elapse time 865.7 min): 0.156 wt %
SMILES: CCN1CCC[C@@H]1CNC(=O)c1cc(S(=O)(=O)CC)c(N)cc1OC [(R)-amisulpride Form A, R-4-Amino-N-[(1-ethyl-2-pyrrolidinyl)methyl]-5-(ethylsulfonyl)-2-methoxybenzamide]
